Source: patent publication US8278473B2, “Alpha, beta-unsaturated imidate compound and pesticidal composition containing the same” (Sumitomo Chemical Company, Limited, priority 2007, dated 2012)
Some entries share one result that the patent states for a list of compounds. For part of these data: At least one read-out could not be matched to a standard name with certainty. Some ranges recur; such a range may be that of the whole group of compounds.

Tests used:
Assay type in all cases: in vivo
Culex pipiens pallens = assay: Test Example 7: Culex pipiens pallens larvae in treated water; conditions: active ingredient concentration 3.5 ppm in water; last-instar larvae; after 1 day
Nilaparvata lugens = assay: Test Example 4: Nilaparvata lugens, spray on rice plant; conditions: 500 ppm test solution, 20 mL/pot sprayed on rice; first-instar larvae; after 6 days
Spodoptera litura = assay: Test Example 1: Spodoptera litura, artificial diet/filter paper test; conditions: 500 ppm test solution, 2 mL; fourth-instar larvae; after 6 days
Aphis gossypii = assay: Test Example 3: Aphis gossypii, spray on cucumber leaves; conditions: 500 ppm test solution, 20 mL sprayed on cucumber; imagoes and larvae; after 6 days
Musca domestica = assay: Test Example 5: Musca domestica, filter paper with sucrose bait; conditions: 500 ppm test solution, 0.7 ml on filter paper; female imagoes; after 24 hours
Plutella xylostella = assay: Test Example 9: Plutella xylostella, spray on cabbage; conditions: 500 ppm test solution, 20 mL sprayed on cabbage; second-instar larvae; 25° C.; after 5 days
Tetranychus urticae = assay: Test Example 8: Tetranychus urticae, spray on bean plant; conditions: 500 ppm test solution, 20 mL sprayed on bean plant; after 8 days
Adoxophyes orana = assay: Test Example 2: Adoxophyes orana, artificial diet/filter paper test; conditions: 500 ppm test solution, 1 mL; first-instar larvae; after 7 days
Blattalla germanica = assay: Test Example 6: Blattalla germanica, filter paper with sucrose bait; conditions: 500 ppm test solution, 0.7 ml on filter paper; male imagoes; after 6 days

SMILES	index in terms of death rate (Culex pipiens pallens)	index in terms of survival rate (Nilaparvata lugens)	index in terms of death rate (Spodoptera litura)	index in terms of survival rate (Aphis gossypii)	index in terms of death rate (Musca domestica)	index in terms of death rate (Plutella xylostella)	index in terms of the surviving number (female imagoes) (Tetranychus urticae)	index in terms of death rate (Adoxophyes orana)	index in terms of death rate (Blattalla germanica)
CCOc1cccc(OC(=Nc2ccc(C)cc2)C(C)=COc2cccc(C)c2)c1 [Compound 186, 3-ethoxyphenyl 2-methyl-N-(4-methylphenyl)-3-(3-methylphenyloxy)-2-propenimidate]	4 (4: 91 to 100%)	3 (3: 1 to 10%)	3 (3: 80 to 99%)	3 (3: 1 to 10%)	3 (3: 70 to 99%)	3 (3: 80 to 99%)	3 (index 3: 4 to 10)	3 (3: 80 to 99%)	4 (4: 100%)
COc1ccc(N=C(Oc2ccccc2)C(C)=COc2cccc(C)c2)cc1 [Compound 188, phenyl N-(4-methoxyphenyl)-2-methyl-3-(3-methylphenyloxy)-2-propenimidate]	4 (4: 91 to 100%)	3 (3: 1 to 10%)	3 (3: 80 to 99%)	3 (3: 1 to 10%)	3 (3: 70 to 99%)	3 (3: 80 to 99%)	3 (index 3: 4 to 10)	3 (3: 80 to 99%)	4 (4: 100%)
COc1ccc(N=C(Oc2cccc(C)c2)C(C)=COc2cccc(C)c2)cc1 [Compound 189, 3-methylphenyl N-(4-methoxyphenyl)-2-methyl-3-(3-methylphenyloxy)-2-propenimidate]	4 (4: 91 to 100%)	3 (3: 1 to 10%)	3 (3: 80 to 99%)	3 (3: 1 to 10%)	3 (3: 70 to 99%)	3 (3: 80 to 99%)	3 (index 3: 4 to 10)	3 (3: 80 to 99%)	4 (4: 100%)
CC(=COc1ccc(C)cc1)C(=Nc1ccccc1)Oc1ccccc1C [Compound 194, 2-methylphenyl 2-methyl-3-(4-methylphenyloxy)-N-phenyl-2-propenimidate]	4 (4: 91 to 100%)	3 (3: 1 to 10%)	3 (3: 80 to 99%)	3 (3: 1 to 10%)	3 (3: 70 to 99%)	3 (3: 80 to 99%)	3 (index 3: 4 to 10)	3 (3: 80 to 99%)	4 (4: 100%)
CC(=COc1ccc(C)cc1)C(=Nc1ccccc1)Oc1cccc(C)c1 [Compound 195, 3-methylphenyl 2-methyl-3-(4-methylphenyloxy)-N-phenyl-2-propenimidate]	4 (4: 91 to 100%)	3 (3: 1 to 10%)	3 (3: 80 to 99%)	3 (3: 1 to 10%)	3 (3: 70 to 99%)	3 (3: 80 to 99%)	3 (index 3: 4 to 10)	3 (3: 80 to 99%)	4 (4: 100%)
CC(=COc1ccc(C)cc1)C(=Nc1ccccc1)Oc1ccccc1F [Compound 197, 2-fluorophenyl 2-methyl-3-(4-methylphenyloxy)-N-phenyl-2-propenimidate]	4 (4: 91 to 100%)	3 (3: 1 to 10%)	3 (3: 80 to 99%)	3 (3: 1 to 10%)	3 (3: 70 to 99%)	3 (3: 80 to 99%)	3 (index 3: 4 to 10)	3 (3: 80 to 99%)	4 (4: 100%)
CC(=COc1ccc(C)cc1)C(=Nc1ccccc1)Oc1ccc(F)cc1 [Compound 199, 4-fluorophenyl 2-methyl-3-(4-methylphenyloxy)-N-phenyl-2-propenimidate]	4 (4: 91 to 100%)	3 (3: 1 to 10%)	3 (3: 80 to 99%)	3 (3: 1 to 10%)	3 (3: 70 to 99%)	3 (3: 80 to 99%)	3 (index 3: 4 to 10)	3 (3: 80 to 99%)	4 (4: 100%)
CC(=COc1ccc(C)cc1)C(=Nc1ccccc1)Oc1cccc(Cl)c1 [Compound 201, 3-chlorophenyl 2-methyl-3-(4-methylphenyloxy)-N-phenyl-2-propenimidate]	4 (4: 91 to 100%)	3 (3: 1 to 10%)	3 (3: 80 to 99%)	3 (3: 1 to 10%)	3 (3: 70 to 99%)	3 (3: 80 to 99%)	3 (index 3: 4 to 10)	3 (3: 80 to 99%)	4 (4: 100%)
CC(=COc1ccc(C)cc1)C(=Nc1ccccc1)Oc1cccc(C(F)(F)F)c1 [Compound 206, 3-(trifluoromethyl)phenyl 2-methyl-3-(4-methylphenyloxy)-N-phenyl-2-propenimidate]	4 (4: 91 to 100%)	3 (3: 1 to 10%)	3 (3: 80 to 99%)	3 (3: 1 to 10%)	3 (3: 70 to 99%)	3 (3: 80 to 99%)	3 (index 3: 4 to 10)	3 (3: 80 to 99%)	4 (4: 100%)
CC(=COc1ccc(C)cc1)C(=Nc1ccc(C)cc1)Oc1cccc(C)c1 [Compound 210, 3-methylphenyl 2-methyl-N-(4-methylphenyl)-3-(4-methylphenyloxy)-2-propenimidate]	4 (4: 91 to 100%)	3 (3: 1 to 10%)	3 (3: 80 to 99%)	3 (3: 1 to 10%)	3 (3: 70 to 99%)	3 (3: 80 to 99%)	3 (index 3: 4 to 10)	3 (3: 80 to 99%)	4 (4: 100%)
CC(=COc1ccc(C)cc1)C(=Nc1ccc(C)cc1)Oc1ccc(F)cc1 [Compound 215, 4-fluorophenyl 2-methyl-N-(4-methylphenyl)-3-(4-methylphenyloxy)-2-propenimidate]	4 (4: 91 to 100%)	3 (3: 1 to 10%)	3 (3: 80 to 99%)	3 (3: 1 to 10%)	3 (3: 70 to 99%)	3 (3: 80 to 99%)	3 (index 3: 4 to 10)	3 (3: 80 to 99%)	4 (4: 100%)
CC(=COc1ccc(C)cc1)C(=Nc1ccc(C)cc1)Oc1cccc(OC(F)(F)F)c1 [Compound 222, 3-(trifluoromethoxy)phenyl 2-methyl-N-(4-methylphenyl)-3-(4-methylphenyloxy)-2-propenimidate]	4 (4: 91 to 100%)	3 (3: 1 to 10%)	3 (3: 80 to 99%)	3 (3: 1 to 10%)	3 (3: 70 to 99%)	3 (3: 80 to 99%)	3 (index 3: 4 to 10)	3 (3: 80 to 99%)	4 (4: 100%)
CCc1cccc(OC=C(C)C(=Nc2ccccc2)Oc2ccccc2)c1 [Compound 228, phenyl 3-(3-ethylphenyloxy)-2-methyl-N-phenyl-2-propenimidate]	4 (4: 91 to 100%)	3 (3: 1 to 10%)	3 (3: 80 to 99%)	3 (3: 1 to 10%)	3 (3: 70 to 99%)	3 (3: 80 to 99%)	3 (index 3: 4 to 10)	3 (3: 80 to 99%)	4 (4: 100%)
CCc1ccc(OC=C(C)C(=Nc2ccccc2)Oc2ccccc2)cc1 [Compound 229, phenyl 3-(4-ethylphenyloxy)-2-methyl-N-phenyl-2-propenimidate]	4 (4: 91 to 100%)	3 (3: 1 to 10%)	3 (3: 80 to 99%)	3 (3: 1 to 10%)	3 (3: 70 to 99%)	3 (3: 80 to 99%)	3 (index 3: 4 to 10)	3 (3: 80 to 99%)	4 (4: 100%)
